# Data published in article PMC9325861, “Mouse precision-cut liver slices as an ex vivo model to study drug-induced cholestasis” (Archives of Toxicology, 2022).
# Counter-ions that a name gives are not always drawn.
# What was measured:
# mouse PCLS [1] = experiment: Viability of mouse PCLS by ATP content (ATP bioluminescence, normalized to protein); assay type: cell-based
# Protocol: In short, freshly prepared PCLS were transferred to 12-well plates (Greiner bio-one GmbH, Austria), one slice per well. Each well was filled with 1.3 mL pre-heated (37 ℃) and oxygenated (80%) Williams Medium E (1X, glutaMAX-1), which had been supplemented with 25 mM D-glucose monohydrate and 50 μg/ml Gentamicin (denoted as WME GG). […] The DMSO concentration used was below 0.5% in the incubation medium, equivalent to DMSO concentrations in solutions prepared by dilution of BA stock solutions with WME GG.
# ATP was extracted by homogenization, followed by the centrifugation of the homogenate (16,000g at 4 °C for 5 min). The supernatant was collected, and the pellet was left to dry. An ATP Bioluminescence Assay Kit (Roche Diagnostics, Mannheim, Germany) was used to determine ATP content in the supernatant. The dried pellet was used to determine the total protein content of the PCLS using the Bio-Rad DC Protein Assay (Bio-Rad, Munich, Germany). The obtained ATP values were then normalized for the total protein content of the slice.
# A minimum of three mouse livers was used for each experiment, using PCLS in triplicate from each liver. GraphPad Prism 8.4.3 was used to perform statistical analysis, using a Student’s unpaired two-tailed T-test to compare two means, or a one-way ANOVA to compare multiple means. One-way ANOVA was followed by either Tukey’s multiple comparisons test to compare all means within a dataset, or Dunnett’s multiple comparisons test to compare all means with their own control mean. Nonlinear regression analysis was followed by an extra sum of squares F-test to compare two fits. mRNA expression levels are shown as Log2(fold induction) (− ΔΔCt), though the data was statistically analyzed using the cycle threshold (ΔCt) values. Differences between groups were considered significant when p < 0.05.
# mouse PCLS [2] = experiment: LC–MS/MS quantification of intracellular BAs in mouse PCLS; assay type: cell-based; conditions: 48 h
# Protocol: In short, freshly prepared PCLS were transferred to 12-well plates (Greiner bio-one GmbH, Austria), one slice per well. […] The composition of the human-like BA mixture was based on serum concentrations in mice and humans, measured by […]. […] A Shimadzu Nexera X2 HPLC system with binary pumps was interfaced to a Thermo Scientific TSQ Quantum ultra-triple quadrupole mass spectrometer. The BA analysis was performed by liquid chromatography-tandem mass spectrometry (LC-MS/MS). Xcalibur software version 2.0.7 by Thermo Scientific was applied in the data processing. […] Phenomenex, Utrecht, the Netherlands) reversed-phase column was used to separate the BAs. The column and autosampler temperatures were set at 55 °C and 4 °C, respectively. The injection volume was 15 μL, and the flow was set at 0.3 mL/min. […] Intracellular BA concentrations in PCLS were measured by LC-MS/MS. Sample preparation for these measurements of intracellular BAs was performed as follows. […] Hereafter, three slices for each condition were pooled in a 1.5-mL test tube, snap-frozen in liquid nitrogen and stored at -80 °C until analysis. […] Samples were subsequently centrifuged for 15 min at 15 °C and 13,000 rpm. The supernatant was collected in a new tube, and the samples were concentrated using a Concentrator plus centrifuge (Eppendorf, Germany). […] The concentrations of CA, CDCA, DCA, LCA, UDCA, HDCA, […] and GCA were determined with MRM-based LC-MS as described above.
# [3] = with humanized BA mixture, CPZ 15 µM, CSA 1 µM, GB 25 µM
# [4] = with humanized BA mixture, CPZ 30 µM, CSA 6 µM, GB 65 µM
# [5] = without BA mixture, CPZ 15 µM, CSA 1 µM, GB 25 µM
# [6] = without BA mixture, CPZ 30 µM, CSA 6 µM, GB 65 µM
compound,measurement,setting,value
"CN(C)CCCN1c2ccccc2Sc2ccc(Cl)cc21 [CPZ, Chlorpromazine hydrochloride]",HS (hillslope of concentration-response curve),"mouse PCLS [1]; w/o BA, fit with IC different with and w/o BA",-4.6
same,HS (hillslope of concentration-response curve),"mouse PCLS [1]; with BA, fit with IC different with and w/o BA",-4.6
same,"CA, percent of total measured BA",mouse PCLS [2]; [3],36.0%
same,"CDCA, percent of total measured BA",mouse PCLS [2]; [3],2.9%
same,"DCA, percent of total measured BA",mouse PCLS [2]; [3],12.1%
same,"GCA, percent of total measured BA",mouse PCLS [2]; [3],4.8%
same,"HDCA, percent of total measured BA",mouse PCLS [2]; [3],0.6%
same,"LCA, percent of total measured BA",mouse PCLS [2]; [3],0.5%
same,"TCA, percent of total measured BA",mouse PCLS [2]; [3],33.8%
same,"TCDCA, percent of total measured BA",mouse PCLS [2]; [3],1.4%
same,"TDCA, percent of total measured BA",mouse PCLS [2]; [3],2.0%
same,"THDCA, percent of total measured BA",mouse PCLS [2]; [3],1.3%
same,"UDCA, percent of total measured BA",mouse PCLS [2]; [3],4.7%
same,"CA, percentage of the total amount of BA",mouse PCLS [2]; [4],26.7%
same,"CDCA, percentage of the total amount of BA",mouse PCLS [2]; [4],3.55%
same,"DCA, percentage of the total amount of BA",mouse PCLS [2]; [4],25.3%
same,"GCA, percentage of the total amount of BA",mouse PCLS [2]; [4],2.2%
same,"HDCA, percentage of the total amount of BA",mouse PCLS [2]; [4],1.2%
same,"LCA, percentage of the total amount of BA",mouse PCLS [2]; [4],1.3%
same,"TCA, percentage of the total amount of BA",mouse PCLS [2]; [4],29.8%
same,"TCDCA, percentage of the total amount of BA",mouse PCLS [2]; [4],1.5%
same,"TDCA, percentage of the total amount of BA",mouse PCLS [2]; [4],3.8%
same,"THDCA, percentage of the total amount of BA",mouse PCLS [2]; [4],0.8%
same,"UDCA, percentage of the total amount of BA",mouse PCLS [2]; [4],3.9%
same,"CA, percent of total measured BA",mouse PCLS [2]; [5],1.8%
same,"CDCA, percent of total measured BA",mouse PCLS [2]; [5],1.1%
same,"DCA, percent of total measured BA",mouse PCLS [2]; [5],0.4%
same,"GCA, percent of total measured BA",mouse PCLS [2]; [5],0.0%
same,"HDCA, percent of total measured BA",mouse PCLS [2]; [5],0.0%
same,"LCA, percent of total measured BA",mouse PCLS [2]; [5],1.2%
same,"TCA, percent of total measured BA",mouse PCLS [2]; [5],4.5%
same,"TCDCA, percent of total measured BA",mouse PCLS [2]; [5],77.4%
same,"TDCA, percent of total measured BA",mouse PCLS [2]; [5],0.7%
same,"THDCA, percent of total measured BA",mouse PCLS [2]; [5],12.8%
same,"UDCA, percent of total measured BA",mouse PCLS [2]; [5],0.0%
same,"CA, percent of total measured BA",mouse PCLS [2]; [6],1.1%
same,"CDCA, percent of total measured BA",mouse PCLS [2]; [6],1.1%
same,"DCA, percent of total measured BA",mouse PCLS [2]; [6],0.4%
same,"GCA, percent of total measured BA",mouse PCLS [2]; [6],0.0%
same,"HDCA, percent of total measured BA",mouse PCLS [2]; [6],0.0%
same,"LCA, percent of total measured BA",mouse PCLS [2]; [6],1.1%
same,"TCA, percent of total measured BA",mouse PCLS [2]; [6],3.6%
same,"TCDCA, percent of total measured BA",mouse PCLS [2]; [6],76.5%
same,"TDCA, percent of total measured BA",mouse PCLS [2]; [6],0.2%
same,"THDCA, percent of total measured BA",mouse PCLS [2]; [6],16.0%
same,"UDCA, percent of total measured BA",mouse PCLS [2]; [6],0.0%
"COc1ccc(Cl)cc1C(=O)NCCc1ccc(S(=O)(=O)NC(=O)NC2CCCCC2)cc1 [GB, Glibenclamide]",HS (hillslope of concentration-response curve),"mouse PCLS [1]; Table S3, one fit, the same with and w/o BA",-4.8
same,"CA, percent of total measured BA",mouse PCLS [2]; [3],30.5%
same,"CDCA, percent of total measured BA",mouse PCLS [2]; [3],4.3%
same,"DCA, percent of total measured BA",mouse PCLS [2]; [3],14.9%
same,"GCA, percent of total measured BA",mouse PCLS [2]; [3],4.0%
same,"HDCA, percent of total measured BA",mouse PCLS [2]; [3],2.8%
same,"LCA, percent of total measured BA",mouse PCLS [2]; [3],0.2%
same,"TCA, percent of total measured BA",mouse PCLS [2]; [3],30.6%
same,"TCDCA, percent of total measured BA",mouse PCLS [2]; [3],2.3%
same,"TDCA, percent of total measured BA",mouse PCLS [2]; [3],2.2%
same,"THDCA, percent of total measured BA",mouse PCLS [2]; [3],2.4%
same,"UDCA, percent of total measured BA",mouse PCLS [2]; [3],5.6%
same,"CA, percentage of the total amount of BA",mouse PCLS [2]; [4],25.9%
same,"CDCA, percentage of the total amount of BA",mouse PCLS [2]; [4],2.9%
same,"DCA, percentage of the total amount of BA",mouse PCLS [2]; [4],23.7%
same,"GCA, percentage of the total amount of BA",mouse PCLS [2]; [4],4.4%
same,"HDCA, percentage of the total amount of BA",mouse PCLS [2]; [4],5.0%
same,"LCA, percentage of the total amount of BA",mouse PCLS [2]; [4],0.2%
same,"TCA, percentage of the total amount of BA",mouse PCLS [2]; [4],26.4%
same,"TCDCA, percentage of the total amount of BA",mouse PCLS [2]; [4],1.7%
same,"TDCA, percentage of the total amount of BA",mouse PCLS [2]; [4],2.9%
same,"THDCA, percentage of the total amount of BA",mouse PCLS [2]; [4],2.2%
same,"UDCA, percentage of the total amount of BA",mouse PCLS [2]; [4],4.8%
same,"CA, percent of total measured BA",mouse PCLS [2]; [5],8.2%
same,"CDCA, percent of total measured BA",mouse PCLS [2]; [5],3.7%
same,"DCA, percent of total measured BA",mouse PCLS [2]; [5],9.4%
same,"GCA, percent of total measured BA",mouse PCLS [2]; [5],0.0%
same,"HDCA, percent of total measured BA",mouse PCLS [2]; [5],0.0%
same,"LCA, percent of total measured BA",mouse PCLS [2]; [5],2.4%
same,"TCA, percent of total measured BA",mouse PCLS [2]; [5],10.5%
same,"TCDCA, percent of total measured BA",mouse PCLS [2]; [5],36.6%
same,"TDCA, percent of total measured BA",mouse PCLS [2]; [5],0.4%
same,"THDCA, percent of total measured BA",mouse PCLS [2]; [5],28.8%
same,"UDCA, percent of total measured BA",mouse PCLS [2]; [5],0.0%
same,"CA, percent of total measured BA",mouse PCLS [2]; [6],13.1%
same,"CDCA, percent of total measured BA",mouse PCLS [2]; [6],10.1%
same,"DCA, percent of total measured BA",mouse PCLS [2]; [6],3.4%
same,"GCA, percent of total measured BA",mouse PCLS [2]; [6],0.0%
same,"HDCA, percent of total measured BA",mouse PCLS [2]; [6],0.9%
same,"LCA, percent of total measured BA",mouse PCLS [2]; [6],5.5%
same,"TCA, percent of total measured BA",mouse PCLS [2]; [6],6.3%
same,"TCDCA, percent of total measured BA",mouse PCLS [2]; [6],48.5%
same,"TDCA, percent of total measured BA",mouse PCLS [2]; [6],0.2%
same,"THDCA, percent of total measured BA",mouse PCLS [2]; [6],11.8%
same,"UDCA, percent of total measured BA",mouse PCLS [2]; [6],0.0%
